Reference: paper PMC11317129, “Bacterial histone HBb from Bdellovibrio bacteriovorus compacts DNA by bending” (Nucleic Acids Research, 2023)
Construct, isoform or probe ends are uncertain for at least one entry. At least one verdict rests on a figure or table, not on a statement of the authors. Tags and fusion partners may be left off the protein sequences shown.

Target: T1, HBb (Bd0055) (Bdellovibrio bacteriovorus HD100) (UniProt Q6MRM1)
T1 sequence (looked up): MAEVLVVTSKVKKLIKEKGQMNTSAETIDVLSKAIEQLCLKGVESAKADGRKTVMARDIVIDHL
Assay: crystal structure
Conditions: recombinant protein, residues 1-64, protein details: N-terminal His6 (vector pETHis1a)

TTAAAGCCCGTTAAAGCCCG (double strand) [20 bp-GC50]
binding result (HBb-DNA_1): binds | binding result (HBb-DNA_2, 9 nt strand in asymmetric unit, contacts T8 S9 K10): binds
